Experimental data: PubChem BioAssay AID1224830 (NIAID, 2016)

Purpose: 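Host factors that control LPS-induced TNF expression in human macrophages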 (primary screen)
Cells: human THP-1 monocytic leukaemia cells, TNF dual-luciferase reporter clone, PMA-differentiated to macrophage-like cells
Reagent: siRNA pool against human genes, 50 nM
Duration: LPS for 4 h, given about 3 days after siRNA transfection
Treatment: bacterial LPS (TLR4 ligand), 10 ng/ml
Measurement: 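TNF firefly reporter luminescence divided by renilla, normalised to the plate median, then turned into a robust z-score for each replicate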
Reading the numbers: TNF reporter robust z-score: higher = stronger TNF reporter response to LPS
Rule for the call: 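a well is active when its z-score exceeds 2.8 or falls below -1.5; control wells carry no call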
Here is one part, drawn at random, of about 18,000 reagents. Of all reagents, about 2,900 (16%) were called active. 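Calls are made per well; low scores hint the gene aids the LPS response, high scores that it dampens it.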 Repeated entries: four replicate wells of each siRNA pool.

Gene	TNF reporter robust z-score	Call
NUP160 (nucleoporin 160)	-0.34	inactive
NUP160 (nucleoporin 160)	1.22	inactive
NUP160 (nucleoporin 160)	0.35	inactive
NUP160 (nucleoporin 160)	0.95	inactive
WDR76 (WD repeat domain 76)	0.57	inactive
WDR76 (WD repeat domain 76)	1.37	inactive
WDR76 (WD repeat domain 76)	0.79	inactive
WDR76 (WD repeat domain 76)	0.75	inactive
AP3B2 (adaptor related protein complex 3 subunit beta 2)	-0.87	inactive
AP3B2 (adaptor related protein complex 3 subunit beta 2)	-0.22	inactive
AP3B2 (adaptor related protein complex 3 subunit beta 2)	-1.15	inactive
AP3B2 (adaptor related protein complex 3 subunit beta 2)	-0.37	inactive
SLC4A2	0.04	inactive
SLC4A2	2.74	inactive
SLC4A2	0.56	inactive
SLC4A2	1.61	inactive
PRDM5 (PR/SET domain 5)	0.15	inactive
PRDM5 (PR/SET domain 5)	0.68	inactive
PRDM5 (PR/SET domain 5)	-0.01	inactive
PRDM5 (PR/SET domain 5)	-0.81	inactive
AMY1C (amylase alpha 1C)	0.8	inactive
AMY1C (amylase alpha 1C)	0.34	inactive
AMY1C (amylase alpha 1C)	1.28	inactive
AMY1C (amylase alpha 1C)	1.07	inactive
TRPC3	0.45	inactive
TRPC3	-0.41	inactive
TRPC3	-1.46	inactive
TRPC3	0.69	inactive
SSR4 (signal sequence receptor subunit 4)	0.25	inactive
SSR4 (signal sequence receptor subunit 4)	0.85	inactive
SSR4 (signal sequence receptor subunit 4)	-0.14	inactive
SSR4 (signal sequence receptor subunit 4)	1.02	inactive
ABLIM2 (actin binding LIM protein family member 2)	0.48	inactive
ABLIM2 (actin binding LIM protein family member 2)	-0.02	inactive
ABLIM2 (actin binding LIM protein family member 2)	0.62	inactive
LRCH3	-0.63	inactive
LRCH3	-0.45	inactive
LRCH3	-0.19	inactive
LRCH3	-0.5	inactive
PHLDA2 (pleckstrin homology like domain family A member 2)	-1.68	active
PHLDA2 (pleckstrin homology like domain family A member 2)	-1.32	inactive
PHLDA2 (pleckstrin homology like domain family A member 2)	-0.71	inactive
PHLDA2 (pleckstrin homology like domain family A member 2)	-1.07	inactive
MLYCD (malonyl-CoA decarboxylase)	0.76	inactive
MLYCD (malonyl-CoA decarboxylase)	-1.02	inactive
MLYCD (malonyl-CoA decarboxylase)	-0.96	inactive
MLYCD (malonyl-CoA decarboxylase)	-1.25	inactive
SLC2A3	0.12	inactive
SLC2A3	0.16	inactive
SLC2A3	0.64	inactive
SLC2A3	1.36	inactive
SVEP1	-0.35	inactive
SVEP1	-0.25	inactive
SVEP1	-1.14	inactive
SVEP1	-0.76	inactive
DRC8 (dynein regulatory complex subunit 8)	-0.81	inactive
DRC8 (dynein regulatory complex subunit 8)	0.56	inactive
DRC8 (dynein regulatory complex subunit 8)	1.08	inactive
DRC8 (dynein regulatory complex subunit 8)	-0.34	inactive
DUSP7 (dual specificity phosphatase 7)	-0.61	inactive
DUSP7 (dual specificity phosphatase 7)	-0.73	inactive
DUSP7 (dual specificity phosphatase 7)	-0.04	inactive
DUSP7 (dual specificity phosphatase 7)	-0.7	inactive
TOM1L2 (target of myb1 like 2 membrane trafficking protein)	2.51	inactive
TOM1L2 (target of myb1 like 2 membrane trafficking protein)	3.31	active
TOM1L2 (target of myb1 like 2 membrane trafficking protein)	2.92	active
TOM1L2 (target of myb1 like 2 membrane trafficking protein)	2.94	active
ITGBL1 (integrin subunit beta like 1)	2.05	inactive
ITGBL1 (integrin subunit beta like 1)	0.6	inactive
ITGBL1 (integrin subunit beta like 1)	1.61	inactive
ITGBL1 (integrin subunit beta like 1)	2.44	inactive
AIDA (axin interactor, dorsalization associated)	1.39	inactive
AIDA (axin interactor, dorsalization associated)	0.74	inactive
AIDA (axin interactor, dorsalization associated)	-0.03	inactive
AIDA (axin interactor, dorsalization associated)	1.45	inactive
SUMF2 (sulfatase modifying factor 2)	2.37	inactive
SUMF2 (sulfatase modifying factor 2)	4.23	active
SUMF2 (sulfatase modifying factor 2)	1	inactive
SUMF2 (sulfatase modifying factor 2)	2.18	inactive
CTSD (cathepsin D)	-0.78	inactive
CTSD (cathepsin D)	-0.54	inactive
CTSD (cathepsin D)	0.79	inactive
CTSD (cathepsin D)	-0.68	inactive
HSD17B12 (hydroxysteroid 17-beta dehydrogenase 12)	-0.6	inactive
HSD17B12 (hydroxysteroid 17-beta dehydrogenase 12)	0.91	inactive
HSD17B12 (hydroxysteroid 17-beta dehydrogenase 12)	-0.02	inactive
HSD17B12 (hydroxysteroid 17-beta dehydrogenase 12)	0.79	inactive
PP2D1 (protein phosphatase 2C like domain containing 1)	-0.45	inactive
PP2D1 (protein phosphatase 2C like domain containing 1)	-0.14	inactive
PP2D1 (protein phosphatase 2C like domain containing 1)	-0.09	inactive
PP2D1 (protein phosphatase 2C like domain containing 1)	0.23	inactive
TRIM33 (tripartite motif containing 33)	-0.14	inactive
TRIM33 (tripartite motif containing 33)	0.74	inactive
TRIM33 (tripartite motif containing 33)	0.4	inactive
TRIM33 (tripartite motif containing 33)	-0.34	inactive

Next entries follow:
Gene	TNF reporter robust z-score	Call
TRAPPC2L (trafficking protein particle complex subunit 2L)	0.5	inactive
TRAPPC2L (trafficking protein particle complex subunit 2L)	1.62	inactive
TRAPPC2L (trafficking protein particle complex subunit 2L)	2.37	inactive
TRAPPC2L (trafficking protein particle complex subunit 2L)	3.87	active
ME1 (malic enzyme 1)	-0.17	inactive
ME1 (malic enzyme 1)	0.29	inactive
ME1 (malic enzyme 1)	0.16	inactive
ME1 (malic enzyme 1)	0.58	inactive
CYP4F12 (cytochrome P450 family 4 subfamily F member 12)	-0.57	inactive
CYP4F12 (cytochrome P450 family 4 subfamily F member 12)	-0.1	inactive
CYP4F12 (cytochrome P450 family 4 subfamily F member 12)	-0.35	inactive
CYP4F12 (cytochrome P450 family 4 subfamily F member 12)	-0.21	inactive
MNDA (myeloid cell nuclear differentiation antigen)	-0.08	inactive
MNDA (myeloid cell nuclear differentiation antigen)	-0.33	inactive
MNDA (myeloid cell nuclear differentiation antigen)	-1.25	inactive
MNDA (myeloid cell nuclear differentiation antigen)	0.61	inactive
AP1AR	0.65	inactive
AP1AR	0.21	inactive
AP1AR	0.5	inactive
AP1AR	0.01	inactive
GSE1 (Gse1 coiled-coil protein)	-0.03	inactive
GSE1 (Gse1 coiled-coil protein)	-0.36	inactive
GSE1 (Gse1 coiled-coil protein)	0.12	inactive
GSE1 (Gse1 coiled-coil protein)	-0.51	inactive
MCMBP (minichromosome maintenance complex binding protein)	0.48	inactive
MCMBP (minichromosome maintenance complex binding protein)	0.15	inactive
MCMBP (minichromosome maintenance complex binding protein)	1.25	inactive
MCMBP (minichromosome maintenance complex binding protein)	0.21	inactive
SP110 (SP110 nuclear body protein)	-1.18	inactive
SP110 (SP110 nuclear body protein)	-0.44	inactive
SP110 (SP110 nuclear body protein)	-1	inactive
SP110 (SP110 nuclear body protein)	-1.4	inactive
ITGB3 (integrin subunit beta 3)	-1.8	active
ITGB3 (integrin subunit beta 3)	-1.55	active
ITGB3 (integrin subunit beta 3)	-1.68	active
ITGB3 (integrin subunit beta 3)	-1.51	active
LARP7 (La ribonucleoprotein 7, transcriptional regulator)	0.36	inactive
LARP7 (La ribonucleoprotein 7, transcriptional regulator)	1.66	inactive
LARP7 (La ribonucleoprotein 7, transcriptional regulator)	2.82	active
LARP7 (La ribonucleoprotein 7, transcriptional regulator)	-0.01	inactive
PRPS1 (phosphoribosyl pyrophosphate synthetase 1)	-0.81	inactive
PRPS1 (phosphoribosyl pyrophosphate synthetase 1)	-1.54	active
PRPS1 (phosphoribosyl pyrophosphate synthetase 1)	-0.27	inactive
PRPS1 (phosphoribosyl pyrophosphate synthetase 1)	-0.94	inactive
OR10R2 (olfactory receptor family 10 subfamily R member 2)	0.1	inactive
OR10R2 (olfactory receptor family 10 subfamily R member 2)	0.17	inactive
OR10R2 (olfactory receptor family 10 subfamily R member 2)	0.57	inactive
OR10R2 (olfactory receptor family 10 subfamily R member 2)	-0.12	inactive
